The target in test [1] is Flag-RTEL1 (full-length) (human) (UniProt Q9NZ71). Kind of test: co-IP; HEK293T transfected with Flag-RTEL1 (full-length or deletion constructs) or mock; Flag immunoprecipitation with anti-Flag beads (3xFlag peptide elution for the deletion constructs); immunoblot for endogenous partners. (Immunoblotting shows a protein as a band on a membrane.)
Another test deals with GFP-RTEL1 WT (human) (UniProt Q9NZ71). Kind of test: co-IP; HEK293T cotransfected with HA-Poldip3 and GFP or GFP-RTEL1 (WT or mutant), 24 h; GFP immunoprecipitation, immunoblot with HA and GFP antibodies; also with DNA nuclease treatment of lysates, and after hydroxyurea or camptothecin.
Test [2] concerns the target endogenous RTEL1 (human (endogenous in U2OS and HEK293T)) (UniProt Q9NZ71). As to the kind of experiment: co-IP; endogenous proteins; U2OS cells harvested in EBC buffer, lysates treated with DNases and RNases, precleared; immunoprecipitation with IgG or RTEL1 antibody; release with glycine-HCl buffer.
In test [3] the target is Flag-RTEL1 deletion construct: RTEL1 N terminus harboring the helicase domain (human). Kind of test: co-IP; HEK293T transfected with Flag-RTEL1 (full-length or deletion constructs) or mock; Flag immunoprecipitation with anti-Flag beads (3xFlag peptide elution for the deletion constructs); immunoblot for endogenous partners.

Amino acid sequences for entries named in this document (tags omitted). A change or cut given only in a name is not applied to a line headed by its entry.
UniProt Q9NZ71: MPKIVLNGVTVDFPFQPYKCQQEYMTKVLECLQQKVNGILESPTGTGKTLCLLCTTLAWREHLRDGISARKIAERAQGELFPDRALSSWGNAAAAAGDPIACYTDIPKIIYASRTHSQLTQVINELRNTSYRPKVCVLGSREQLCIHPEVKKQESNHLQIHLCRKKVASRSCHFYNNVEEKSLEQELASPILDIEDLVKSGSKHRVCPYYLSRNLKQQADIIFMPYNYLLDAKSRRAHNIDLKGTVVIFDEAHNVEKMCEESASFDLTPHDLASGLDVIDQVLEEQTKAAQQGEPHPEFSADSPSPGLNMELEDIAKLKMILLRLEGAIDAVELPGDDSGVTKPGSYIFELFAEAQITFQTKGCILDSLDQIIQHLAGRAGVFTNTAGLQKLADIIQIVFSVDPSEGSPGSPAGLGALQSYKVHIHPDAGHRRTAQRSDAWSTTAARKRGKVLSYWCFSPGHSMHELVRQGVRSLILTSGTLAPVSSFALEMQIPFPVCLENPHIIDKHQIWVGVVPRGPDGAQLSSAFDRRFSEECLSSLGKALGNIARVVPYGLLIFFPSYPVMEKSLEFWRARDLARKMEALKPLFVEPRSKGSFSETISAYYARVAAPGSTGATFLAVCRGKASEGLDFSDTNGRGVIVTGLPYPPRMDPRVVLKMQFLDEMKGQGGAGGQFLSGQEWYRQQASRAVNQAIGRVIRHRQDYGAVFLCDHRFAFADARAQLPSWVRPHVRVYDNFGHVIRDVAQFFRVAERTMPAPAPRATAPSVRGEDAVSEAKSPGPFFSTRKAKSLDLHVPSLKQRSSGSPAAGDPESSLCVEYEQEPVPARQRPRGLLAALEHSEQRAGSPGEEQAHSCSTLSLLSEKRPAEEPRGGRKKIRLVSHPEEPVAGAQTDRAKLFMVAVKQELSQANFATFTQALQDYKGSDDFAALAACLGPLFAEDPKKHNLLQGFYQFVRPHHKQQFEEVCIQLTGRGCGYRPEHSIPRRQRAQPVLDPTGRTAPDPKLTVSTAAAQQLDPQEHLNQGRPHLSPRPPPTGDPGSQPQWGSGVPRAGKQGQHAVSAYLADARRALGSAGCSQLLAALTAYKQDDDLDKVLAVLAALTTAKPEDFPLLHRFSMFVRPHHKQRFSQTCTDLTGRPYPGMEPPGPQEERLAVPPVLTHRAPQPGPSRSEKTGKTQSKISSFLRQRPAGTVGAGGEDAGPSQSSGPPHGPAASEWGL
UniProt P28340: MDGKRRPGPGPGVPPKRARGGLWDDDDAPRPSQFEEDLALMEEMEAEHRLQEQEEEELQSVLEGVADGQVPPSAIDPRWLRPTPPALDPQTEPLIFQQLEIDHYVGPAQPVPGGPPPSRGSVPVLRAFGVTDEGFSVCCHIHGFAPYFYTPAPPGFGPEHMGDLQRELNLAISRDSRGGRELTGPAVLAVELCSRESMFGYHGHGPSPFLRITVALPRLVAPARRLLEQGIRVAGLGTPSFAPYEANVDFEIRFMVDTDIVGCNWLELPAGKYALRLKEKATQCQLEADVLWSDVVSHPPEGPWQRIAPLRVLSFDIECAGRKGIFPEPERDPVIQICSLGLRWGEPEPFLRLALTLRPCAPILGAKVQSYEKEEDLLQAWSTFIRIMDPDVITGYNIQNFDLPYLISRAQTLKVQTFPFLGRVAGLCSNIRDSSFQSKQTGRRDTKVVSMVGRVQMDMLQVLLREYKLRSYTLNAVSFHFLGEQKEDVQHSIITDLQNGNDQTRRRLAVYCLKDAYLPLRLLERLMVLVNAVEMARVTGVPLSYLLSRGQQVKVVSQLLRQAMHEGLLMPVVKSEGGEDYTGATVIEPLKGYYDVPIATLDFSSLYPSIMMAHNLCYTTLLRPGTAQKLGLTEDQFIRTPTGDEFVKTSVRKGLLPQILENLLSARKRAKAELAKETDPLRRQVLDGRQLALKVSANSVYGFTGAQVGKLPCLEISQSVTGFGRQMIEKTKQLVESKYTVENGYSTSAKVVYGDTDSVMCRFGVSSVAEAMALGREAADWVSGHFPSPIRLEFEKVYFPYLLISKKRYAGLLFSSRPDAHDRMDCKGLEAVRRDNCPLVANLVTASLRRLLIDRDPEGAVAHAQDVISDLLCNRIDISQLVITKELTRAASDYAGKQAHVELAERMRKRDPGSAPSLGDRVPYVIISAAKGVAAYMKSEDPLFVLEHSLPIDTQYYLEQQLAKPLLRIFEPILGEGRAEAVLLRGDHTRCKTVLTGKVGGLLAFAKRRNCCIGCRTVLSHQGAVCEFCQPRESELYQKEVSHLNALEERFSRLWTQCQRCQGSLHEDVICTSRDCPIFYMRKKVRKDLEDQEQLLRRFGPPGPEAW

No constants are given. Whether binding was seen depends on the method and setting. In cells and extracts the contact can be indirect. A result given as binding can be weak or reduced; the word gives no strength. For part of these data: Where a sequence is shown, tags or fusion partners need not be part of it.

The text below walks through data of paper PMC7397856.

With POLD1 (from UniProt P28340 1-1107), in test [1], the binding result was “binds”.

B1: POLD3 (protein, UniProt Q15054 1-466)
chain: MADQLYLENIDEFVTDQNKIVTYKWLSYTLGVHVNQAKQMLYDYVERKRKENSGAQLHVTYLVSGSLIQNGHSCHKVAVVREDKLEAVKSKLAVTASIHVYSIQKAMLKDSGPLFNTDYDILKSNLQNCSKFSAIQCAAAVPRAPAESSSSSKKFEQSHLHMSSETQANNELTTNGHGPPASKQVSQQPKGIMGMFASKAAAKTQETNKETKTEAKEVTNASAAGNKAPGKGNMMSNFFGKAAMNKFKVNLDSEQAVKEEKIVEQPTVSVTEPKLATPAGLKKSSKKAEPVKVLQKEKKRGKRVALSDDETKETENMRKKRRRIKLPESDSSEDEVFPDSPGAYEAESPSPPPPPSPPLEPVPKTEPEPPSVKSSSGENKRKRKRVLKSKTYLDGEGCIVTEKVYESESCTDSEEELNMKTSSVHRPPAMTVKKEPREERKGPKKGTAALGKANRQVSITGFFQRK
Take B1: in test [1], the binding entry is reported as “binds”.

B2: HA-Poldip3 (protein, UniProt Q9BY77 1-421)
chain: MADISLDELIRKRGAAAKGRLNARPGVGGVRSRVGIQQGLLSQSTRTATFQQRFDARQKIGLSDARLKLGVKDAREKLLQKDARFRIKGKVQDAREMLNSRKQQTTVPQKPRQVADAREKISLKRSSPAAFINPPIGTVTPALKLTKTIQVPQQKAMAPLHPHPAGMRINVVNNHQAKQNLYDLDEDDDGIASVPTKQMKFAASGGFLHHMAGLSSSKLSMSKALPLTKVVQNDAYTAPALPSSIRTKALTNMSRTLVNKEEPPKELPAAEPVLSPLEGTKMTVNNLHPRVTEEDIVELFCVCGALKRARLVHPGVAEVVFVKKDDAITAYKKYNNRCLDGQPMKCNLHMNGNVITSDQPILLRLSDSPSMKKESELPRRVNSASSSNPPAEVDPDTILKALFKSSGASVTTQPTEFKIKL
On to B2, for which the binding result in the test with GFP-RTEL1 WT (human) is recorded as “binds”.

B3: endogenous Poldip3 (protein, UniProt Q9BY77 1-421)
chain: MADISLDELIRKRGAAAKGRLNARPGVGGVRSRVGIQQGLLSQSTRTATFQQRFDARQKIGLSDARLKLGVKDAREKLLQKDARFRIKGKVQDAREMLNSRKQQTTVPQKPRQVADAREKISLKRSSPAAFINPPIGTVTPALKLTKTIQVPQQKAMAPLHPHPAGMRINVVNNHQAKQNLYDLDEDDDGIASVPTKQMKFAASGGFLHHMAGLSSSKLSMSKALPLTKVVQNDAYTAPALPSSIRTKALTNMSRTLVNKEEPPKELPAAEPVLSPLEGTKMTVNNLHPRVTEEDIVELFCVCGALKRARLVHPGVAEVVFVKKDDAITAYKKYNNRCLDGQPMKCNLHMNGNVITSDQPILLRLSDSPSMKKESELPRRVNSASSSNPPAEVDPDTILKALFKSSGASVTTQPTEFKIKL
For B3, the binding result in test [2], in test [3] and in test [1] was “binds” throughout.
